The list shows only some results of the screen, not a fair sample: it is rich in T/C values a quarter to a half above the control, in often repeated tests (any T/C) and in doses without a T/C. Other doses and runs of a compound stand elsewhere. T/C is the treated group as % of the vehicle group. Schedule codes are those of the source, taken here to give the interval after Q, in days (D) or hours (H), and the number of doses after X. Some T/C values carry the count of animals alive at the toxicity check (mostly the fifth day); where none is given, no animal had died by that day. Some doses have a count of surviving animals in place of a T/C: the source files T/C as zero there, which appears to mark a toxic dose or a test without result, not a measured value. Some doses without a T/C left all or most animals alive at the check, yet need not have been tolerated: survival well below the control is almost never listed, so the zero probably covers shortened survival too. Survivors were counted at the toxicity check, usually on the fifth day, unless a day is given; later deaths do not show. Some doses were run more than once; the values are given in rising order. Brackets with × count equal records among those shown. Where survival is the endpoint, the PubChem record calls one and a half times the control and up active, and a quarter to a half above the control has no call in these data; cut-offs in other NCI protocols can differ.
System: Lewis lung carcinoma i.m., BDF1 mice, T/C %
Test: NCI In Vivo Anticancer Drug Screen. Data for tumor model Lewis Lung Carcinoma (intramuscular) in B6D2F1 (BDF1) mice
In short: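 Transplantable tumour model; readout survival or tumour size; value = treated (T) / vehicle control (C).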

With `CN(Cc1cnc2nc(N)nc(N)c2n1)c1ccc(C(=O)N[C@@H](CCC(=O)O)C(=O)O)cc1` the T/C (T/C endpoint: mean tumor weight, dose: 0.62 mg/kg/injection, schedule: Q01DX011 (ip), vehicle: other, evaluated on day 12, higher T/C = larger tumour) was 148 % of control, the T/C (T/C endpoint: mean tumor weight, dose: 1.25 mg/kg/injection, schedule: Q01DX011 (ip), vehicle: other, evaluated on day 12, higher T/C = larger tumour) was 135 % of control [6 of 8 alive] and the survivor count (T/C endpoint: mean tumor weight, dose: 2.5 mg/kg/injection, schedule: Q01DX011 (ip), vehicle: other, higher T/C = larger tumour) was 1 of 8 and 5 of 8. For the same molecule, the T/C (T/C endpoint: median survival time, dose: 0.12 mg/kg/injection, schedule: Q01DX011 (ip), vehicle: sodium bicarbonate, higher T/C = longer survival) was 131 % of control, the T/C (T/C endpoint: median survival time, dose: 0.31 mg/kg/injection, schedule: Q01DX011 (ip), vehicle: other, evaluated on day 39, higher T/C = longer survival) was 110 % of control [7 of 8 alive] and the T/C (T/C endpoint: median survival time, dose: 0.31 mg/kg/injection, schedule: Q01DX011 (ip), vehicle: other, evaluated on day 40, higher T/C = longer survival) was 115 % of control [7 of 8 alive]. The T/C (T/C endpoint: median survival time, dose: 0.31 mg/kg/injection, schedule: Q01DX011 (ip), vehicle: other, evaluated on day 49, higher T/C = longer survival) was 98 % of control, the T/C (T/C endpoint: median survival time, dose: 0.31 mg/kg/injection, schedule: Q01DX011 (ip), vehicle: other, evaluated on day 50, higher T/C = longer survival) was 110 % of control and the survivor count (T/C endpoint: median survival time, dose: 0.39 mg/kg/injection, schedule: Q01DX009 (ip), vehicle: sodium bicarbonate, higher T/C = longer survival) was 0 of 8. For the same molecule, the T/C (T/C endpoint: median survival time, dose: 0.62 mg/kg/injection, schedule: Q01DX011 (ip), vehicle: other, evaluated on day 39, higher T/C = longer survival) was 104 % of control [7 of 8 alive], the T/C (T/C endpoint: median survival time, dose: 0.62 mg/kg/injection, schedule: Q01DX011 (ip), vehicle: other, evaluated on day 40, higher T/C = longer survival) was 117 % of control and the T/C (T/C endpoint: median survival time, dose: 0.62 mg/kg/injection, schedule: Q01DX011 (ip), vehicle: other, evaluated on day 49, higher T/C = longer survival) was 115 % of control. The T/C (T/C endpoint: median survival time, dose: 0.62 mg/kg/injection, schedule: Q01DX011 (ip), vehicle: other, evaluated on day 50, higher T/C = longer survival) was 108 % of control, the T/C (T/C endpoint: median survival time, dose: 0.65 mg/kg/injection, schedule: Q01DX009 (ip), vehicle: sodium bicarbonate, evaluated on day 10, higher T/C = longer survival) was 89 % of control and the T/C (T/C endpoint: median survival time, dose: 0.65 mg/kg/injection, schedule: Q01DX009 (ip), vehicle: sodium bicarbonate, evaluated on day 12, higher T/C = longer survival) was 88 % of control. The T/C (T/C endpoint: median survival time, dose: 0.65 mg/kg/injection, schedule: Q01DX009 (ip), vehicle: sodium bicarbonate, evaluated on day 41, higher T/C = longer survival) was 90 % of control, the T/C (T/C endpoint: median survival time, dose: 0.65 mg/kg/injection, schedule: Q01DX009 (ip), vehicle: sodium bicarbonate, evaluated on day 45, higher T/C = longer survival) was 90 % of control and the survivor count (T/C endpoint: median survival time, dose: 1.0 mg/kg/injection, schedule: Q01DX011 (ip), vehicle: sodium bicarbonate, higher T/C = longer survival) was 9 of 10. The T/C (T/C endpoint: median survival time, dose: 1.08 mg/kg/injection, schedule: Q01DX009 (ip), vehicle: sodium bicarbonate, evaluated on day 10, higher T/C = longer survival) was 98 % of control, the T/C (T/C endpoint: median survival time, dose: 1.08 mg/kg/injection, schedule: Q01DX009 (ip), vehicle: sodium bicarbonate, evaluated on day 12, higher T/C = longer survival) was 92 % of control and the T/C (T/C endpoint: median survival time, dose: 1.08 mg/kg/injection, schedule: Q01DX009 (ip), vehicle: sodium bicarbonate, evaluated on day 41, higher T/C = longer survival) was 95 % of control. For the same molecule, the T/C (T/C endpoint: median survival time, dose: 1.08 mg/kg/injection, schedule: Q01DX009 (ip), vehicle: sodium bicarbonate, evaluated on day 45, higher T/C = longer survival) was 92 % of control [7 of 8 alive], the T/C (T/C endpoint: median survival time, dose: 1.25 mg/kg/injection, schedule: Q01DX011 (ip), vehicle: other, evaluated on day 40, higher T/C = longer survival) was 133 % of control [6 of 8 alive] and the T/C (T/C endpoint: median survival time, dose: 1.25 mg/kg/injection, schedule: Q01DX011 (ip), vehicle: other, evaluated on day 49, higher T/C = longer survival) was 98 % of control [7 of 8 alive]. For the same molecule, the T/C (T/C endpoint: median survival time, dose: 1.25 mg/kg/injection, schedule: Q01DX011 (ip), vehicle: other, evaluated on day 50, higher T/C = longer survival) was 92 % of control, the survivor count (T/C endpoint: median survival time, dose: 1.25 mg/kg/injection, schedule: Q01DX011 (ip), vehicle: other, higher T/C = longer survival) was 6 of 8 and the T/C (T/C endpoint: median survival time, dose: 1.8 mg/kg/injection, schedule: Q01DX009 (ip), vehicle: sodium bicarbonate, evaluated on day 10, higher T/C = longer survival) was 50 % of control. The T/C (T/C endpoint: median survival time, dose: 1.8 mg/kg/injection, schedule: Q01DX009 (ip), vehicle: sodium bicarbonate, evaluated on day 12, higher T/C = longer survival) was 65 % of control, the survivor count (T/C endpoint: median survival time, dose: 1.8 mg/kg/injection, schedule: Q01DX009 (ip), vehicle: sodium bicarbonate, higher T/C = longer survival) was 6 of 8 and 7 of 8 and the survivor count (T/C endpoint: median survival time, dose: 2.0 mg/kg/injection, schedule: Q01DX011 (ip), vehicle: sodium bicarbonate, higher T/C = longer survival) was 10 of 10. The survivor count (T/C endpoint: median survival time, dose: 2.5 mg/kg/injection, schedule: Q01DX011 (ip), vehicle: other, higher T/C = longer survival) was 1 of 8, 5 of 8, 6 of 8 (2×), the survivor count (T/C endpoint: median survival time, dose: 3.0 mg/kg/injection, schedule: Q01DX009 (ip), vehicle: sodium bicarbonate, higher T/C = longer survival) was 0 of 8 and the survivor count (T/C endpoint: median survival time, dose: 4.0 mg/kg/injection, schedule: Q01DX011 (ip), vehicle: sodium bicarbonate, higher T/C = longer survival) was 4 of 10 and 9 of 10. For the same molecule, the survivor count (T/C endpoint: median survival time, dose: 5.0 mg/kg/injection, schedule: Q01DX011 (ip), vehicle: other, higher T/C = longer survival) was 0 of 8 (3×).
